For this assay, the system named is BDF1 mice, P388 leukemia ip, median survival T/C. The assay is described as follows: NCI In Vivo Anticancer Drug Screen. Data for tumor model P388 Leukemia (intraperitoneal) in B6D2F1 (BDF1) mice. The settings on record: T/C endpoint: median survival time, higher T/C = longer survival. The method, boiled down:
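Mice carrying the transplantable tumour receive compound or vehicle. Survival is followed in each arm, and the treated measure is divided by the vehicle measure.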

The mark [1] stands for this setting: dose: 200.0 mg/kg/injection, schedule: Q01DX009 (ip), vehicle: saline with Tween-80.
The mark [2] stands for this setting: dose: 6.25 mg/kg/injection, schedule: Q01DX009 (ip), vehicle: Klucel (hydroxypropylcellulose) (HPC).
The mark [3] stands for this setting: dose: 50.0 mg/kg/injection, schedule: Q01DX009 (ip), vehicle: Klucel (hydroxypropylcellulose) (HPC).
Setting [4] is: dose: 8.0 mg/kg/injection, schedule: Q01DX010 (ip), vehicle: saline.
Setting [5] is: dose: 200.0 mg/kg/injection, schedule: Q01DX009 (ip), vehicle: Klucel (hydroxypropylcellulose) (HPC).
Setting [6] is: dose: 200.0 mg/kg/injection, schedule: Q04DX002 (ip), vehicle: saline with Tween-80.
Setting [7] is: dose: 100.0 mg/kg/injection, schedule: Q01DX009 (ip), vehicle: saline.
The mark [8] stands for this setting: dose: 200.0 mg/kg/injection, schedule: Q01DX009 (ip), vehicle: saline.

The list is a part of this screen's results and no random one: it gathers tests that were run many times, whatever their T/C, doses with no T/C, and many T/C values between a quarter and a half above the control. Other doses and runs of a compound stand elsewhere. T/C is the treated group as % of the vehicle group. Some entries give survivors of the animals treated and no T/C: the source files T/C as zero there, which appears to mark a toxic dose or a test without result, not a measured value. Some survivor counts are full or nearly so, which does not show that the dose was tolerated: survival well below the control is almost never listed, so the zero probably covers shortened survival too. Counts of survivors are from the toxicity check (mostly the fifth day) where no day follows; animals may have died later. Schedules are NCI's codes, taken here to give the interval after Q, in days (D) or hours (H), and the number of doses after X. For survival time, this PubChem deposit counts one and a half times the control or more as active, and values a quarter to a half above the control carry no call in these data; other NCI protocols may use other cut-offs. Counts like (3×) give the number of equal values in this list. Some doses were run more than once; their values stand side by side, smallest first.

Take `CC(=O)CC(=O)C(F)(F)F.CC(=O)CC(=O)C(F)(F)F.[O]=[V]`: the survivor count reads like this: (dose: 15.0 mg/kg/injection, schedule: Q01DX009 (ip), vehicle: Klucel (hydroxypropylcellulose) (HPC)) 1 of 6; (dose: 30.0 mg/kg/injection, schedule: Q01DX009 (ip), vehicle: Klucel (hydroxypropylcellulose) (HPC)) 2 of 6.
Take `c1c2c(cc3c1OCO3)CC1CCCN1CC2` (stereo unspecified): the survivor count (dose: 2.0 mg/kg/injection, schedule: Q01DX009 (ip), vehicle: saline with Tween-80) is listed as 10 of 10.
Regarding `CC1=CC23C(=O)[C@@H](C=C(COC(=O)c4ccccc4)[C@@H](O)[C@]2(O)[C@H]1OC(=O)c1ccccc1)[C@H]1[C@@H](C[C@H]3C)C1(C)C`, the T/C is, setting by setting: (dose: 130.0 micrograms/kg/injection, schedule: Q01DX009 (ip), vehicle: saline + alcohol) 137 % of control (2×); (dose: 216.0 micrograms/kg/injection, schedule: Q01DX009 (ip), vehicle: saline + alcohol) 140 % of control (2×); (dose: 360.0 micrograms/kg/injection, schedule: Q01DX009 (ip), vehicle: saline + alcohol) 147 % of control (2×); (dose: 400.0 micrograms/kg/injection, schedule: Q01DX009 (ip), vehicle: saline with Tween-80) 129 % of control.
On to `CCC12C=CCN3CCC4(c5cc(C(CN6CCCCC6)c6cn(C)c7ccccc67)c(OC)cc5N(C)C4C(O)(C(=O)OC)C1OC(C)=O)C32` (stereo unspecified), for which the survivor count (dose: 64.0 mg/kg/injection, schedule: Q01DX009 (ip), vehicle: saline) is 3 of 6 and the survivor count (dose: 128.0 mg/kg/injection, schedule: Q01DX009 (ip), vehicle: saline) was 0 of 6.
With `CCN(CC)CCOc1ccc(C2=C(c3ccccc3)CCc3cc(OC)ccc32)cc1`, the survivor count by setting is: (dose: 100.0 mg/kg/injection, schedule: Q01DX009 (ip), vehicle: saline with Tween-80) 4 of 6; under setting [1], 2 of 6.
Regarding `O=C1c2ccccc2C(=O)N1CCC[P+](c1ccccc1)(c1ccccc1)c1ccccc1`, the T/C runs as follows: (dose: 3.13 mg/kg/injection, schedule: Q01DX009 (ip), vehicle: Klucel (hydroxypropylcellulose) (HPC)) 125 and 129 % of control; under setting [2], 133 and 136 % of control; (dose: 12.5 mg/kg/injection, schedule: Q01DX009 (ip), vehicle: Klucel (hydroxypropylcellulose) (HPC)) 138 % of control. Also, for the setting “dose: 25.0 mg/kg/injection, schedule: Q01DX009 (ip), vehicle: Klucel (hydroxypropylcellulose) (HPC)”, the survivor count was 2 of 6.
Turning to `C1CCNCC1.O=C([CH-]C(=O)C(F)(F)F)c1ccc2c(c1)C(=O)c1ccccc1-2.O=C([CH-]C(=O)C(F)(F)F)c1ccc2c(c1)C(=O)c1ccccc1-2.O=C([CH-]C(=O)C(F)(F)F)c1ccc2c(c1)C(=O)c1ccccc1-2.O=C([CH-]C(=O)C(F)(F)F)c1ccc2c(c1)C(=O)c1ccccc1-2.[Eu+3]`, the survivor count under setting [3] was 6 of 6.
With `CCCCCCCCCCCC(c1ccccc1)[N+](C)(C)C` (stereo unspecified), the T/C is 130 % of control (dose: 4.0 mg/kg/injection, schedule: Q01DX010 (ip), vehicle: saline) and 125 % of control under setting [4]. Besides, the survivor count by setting is: under setting [4], 3 of 6; (dose: 16.0 mg/kg/injection, schedule: Q01DX010 (ip), vehicle: saline) 3 of 6; (dose: 32.0 mg/kg/injection, schedule: Q01DX010 (ip), vehicle: saline) 0 of 6; (dose: 32.0 mg/kg/injection, schedule: Q04DX003 (ip), vehicle: saline) 5 of 6.
As to `CCOC(=O)C1C2OC(=O)C(C(=O)C2CN(CCCl)CCCl)C1C1CC=C(CC2=CCC(C3C4C(=O)OC(C(CN(CCCl)CCCl)C4=O)C3C(=O)OCC)CC2)CC1` (stereo unspecified), the T/C under setting [2] is 132 % of control. Also, the survivor count under setting [5] is 6 of 6.
On to `CC(=O)CC(C)=O.CC(=O)CC(C)=O.Cc1nccn1C.O=N[O-].[Co]`, for which the T/C under setting [6] is 127 % of control. Also, the survivor count (dose: 400.0 mg/kg/injection, schedule: Q04DX002 (ip), vehicle: saline with Tween-80) is 6 of 6.
As for `CCCNC1=C(N2CC2)C(=O)C(NCCC)=C(N2CC2)C1=O`, the T/C (dose: 0.75 mg/kg/injection, schedule: Q01DX009 (ip), vehicle: saline) was 128 and 146 % of control; the T/C (dose: 1.5 mg/kg/injection, schedule: Q01DX009 (ip), vehicle: saline) is 149 % of control. Besides, the survivor count (dose: 12.0 mg/kg/injection, schedule: Q01DX009 (ip), vehicle: saline) is 6 of 6.
Regarding `Cc1ccc(S(=O)(=O)NCCCCCC(=O)OCc2ccccc2)cc1`, for the setting “dose: 400.0 mg/kg/injection, schedule: Q01DX009 (ip), vehicle: saline”, the survivor count is recorded as 1 of 6.
On to `CCNC1(c2ccc(Cl)cc2)CCCCC1=O` (stereo unspecified), for which the survivor count by setting is: under setting [7], 5 of 6; under setting [8], 0 of 6; (dose: 200.0 mg/kg/injection, schedule: Q04DX003 (ip), vehicle: saline) 0 of 6.
Consider `O=C1NC(c2ccccc2)(c2ccccc2)C(=O)N1CCN(CCCl)CCCl`, for which the T/C runs as follows: (dose: 9.2 mg/kg/injection, schedule: Q04DX003 (ip), vehicle: saline with Tween-80) 125 % of control; (dose: 50.0 mg/kg/injection, schedule: Q04DX003 (ip), vehicle: saline with Tween-80) 127 % of control. Also, the survivor count is, setting by setting: (dose: 100.0 mg/kg/injection, schedule: Q04DX003 (ip), vehicle: saline with Tween-80) 7 of 7; (dose: 200.0 mg/kg/injection, schedule: Q04DX003 (ip), vehicle: saline with Tween-80) 7 of 7; (dose: 400.0 mg/kg/injection, schedule: Q04DX003 (ip), vehicle: saline with Tween-80) 4 of 7.
On to `O=P(N1CC1)(N1CC1)N1CCc2ccccc21`, for which the T/C reads like this: under setting [7], 125 % of control; (dose: 100.0 mg/kg/injection, schedule: Q04DX003 (ip), vehicle: saline) 143 % of control. The survivor count is reported as 6 of 6 under setting [8] and 6 of 6 (dose: 400.0 mg/kg/injection, schedule: Q04DX003 (ip), vehicle: saline).
`Nc1cccc2c1C(=O)c1cccc(NC(=O)c3ccccc3)c1C2=O`: the T/C by setting is: under setting [3], 126 % of control; (dose: 100.0 mg/kg/injection, schedule: Q01DX009 (ip), vehicle: Klucel (hydroxypropylcellulose) (HPC)) 126 % of control; under setting [5], 128 % of control; (dose: 400.0 mg/kg/injection, schedule: Q01DX009 (ip), vehicle: Klucel (hydroxypropylcellulose) (HPC)) 147 % of control.
For `Oc1cccc2cccnc12`, under setting [1], the survivor count is recorded as 1 of 6.
In the case of `CC1OC(O[C@H]2/C=C/C=C/C=C/C=C/C=C/C=C/C=C/[C@H](C)[C@@H](O)[C@@H](C)[C@H](C)OC(=O)C[C@H](O)C[C@H](O)CC[C@@H](O)[C@H](O)C[C@H](O)C[C@]3(O)C[C@H](O)[C@@H](C(=O)O)[C@H](C2)O3)C(O)C(N)C1O` (stereo partly specified), the survivor count (dose: 80.0 mg/kg/injection, schedule: Q04DX003 (ip), vehicle: clinical formulation) is 4 of 8.
For the compound `Cc1oc2c(C)c3oc(=O)cc(C)c3cc2c1CCl`, the T/C is 133 % of control (dose: 50.0 mg/kg/injection, schedule: Q04DX002 (ip), vehicle: saline with Tween-80); 133 % of control (dose: 100.0 mg/kg/injection, schedule: Q04DX002 (ip), vehicle: saline with Tween-80); 140 % of control under setting [6].

These data come from PubChem BioAssay AID328 (DTP/NCI, 2004).
